Measurements published in article PMC10148843.
No constants are given. Whether binding was seen depends on the method and setting. Binding seen in cells or lysates may run through a third protein. Here binding means that the protein was enriched with, or labelled near, the bait; the list need not be complete. For some assays here: A no says only that the protein was not detected with the bait. Each block holds one molecule with its values, some of them ahead of it.

Protein sequences, listed by entry. Tags and fused reporters are not part of them. Lines headed by an entry give the natural chain unless they say otherwise; changes in a name come on top.
UniProt Q6R327: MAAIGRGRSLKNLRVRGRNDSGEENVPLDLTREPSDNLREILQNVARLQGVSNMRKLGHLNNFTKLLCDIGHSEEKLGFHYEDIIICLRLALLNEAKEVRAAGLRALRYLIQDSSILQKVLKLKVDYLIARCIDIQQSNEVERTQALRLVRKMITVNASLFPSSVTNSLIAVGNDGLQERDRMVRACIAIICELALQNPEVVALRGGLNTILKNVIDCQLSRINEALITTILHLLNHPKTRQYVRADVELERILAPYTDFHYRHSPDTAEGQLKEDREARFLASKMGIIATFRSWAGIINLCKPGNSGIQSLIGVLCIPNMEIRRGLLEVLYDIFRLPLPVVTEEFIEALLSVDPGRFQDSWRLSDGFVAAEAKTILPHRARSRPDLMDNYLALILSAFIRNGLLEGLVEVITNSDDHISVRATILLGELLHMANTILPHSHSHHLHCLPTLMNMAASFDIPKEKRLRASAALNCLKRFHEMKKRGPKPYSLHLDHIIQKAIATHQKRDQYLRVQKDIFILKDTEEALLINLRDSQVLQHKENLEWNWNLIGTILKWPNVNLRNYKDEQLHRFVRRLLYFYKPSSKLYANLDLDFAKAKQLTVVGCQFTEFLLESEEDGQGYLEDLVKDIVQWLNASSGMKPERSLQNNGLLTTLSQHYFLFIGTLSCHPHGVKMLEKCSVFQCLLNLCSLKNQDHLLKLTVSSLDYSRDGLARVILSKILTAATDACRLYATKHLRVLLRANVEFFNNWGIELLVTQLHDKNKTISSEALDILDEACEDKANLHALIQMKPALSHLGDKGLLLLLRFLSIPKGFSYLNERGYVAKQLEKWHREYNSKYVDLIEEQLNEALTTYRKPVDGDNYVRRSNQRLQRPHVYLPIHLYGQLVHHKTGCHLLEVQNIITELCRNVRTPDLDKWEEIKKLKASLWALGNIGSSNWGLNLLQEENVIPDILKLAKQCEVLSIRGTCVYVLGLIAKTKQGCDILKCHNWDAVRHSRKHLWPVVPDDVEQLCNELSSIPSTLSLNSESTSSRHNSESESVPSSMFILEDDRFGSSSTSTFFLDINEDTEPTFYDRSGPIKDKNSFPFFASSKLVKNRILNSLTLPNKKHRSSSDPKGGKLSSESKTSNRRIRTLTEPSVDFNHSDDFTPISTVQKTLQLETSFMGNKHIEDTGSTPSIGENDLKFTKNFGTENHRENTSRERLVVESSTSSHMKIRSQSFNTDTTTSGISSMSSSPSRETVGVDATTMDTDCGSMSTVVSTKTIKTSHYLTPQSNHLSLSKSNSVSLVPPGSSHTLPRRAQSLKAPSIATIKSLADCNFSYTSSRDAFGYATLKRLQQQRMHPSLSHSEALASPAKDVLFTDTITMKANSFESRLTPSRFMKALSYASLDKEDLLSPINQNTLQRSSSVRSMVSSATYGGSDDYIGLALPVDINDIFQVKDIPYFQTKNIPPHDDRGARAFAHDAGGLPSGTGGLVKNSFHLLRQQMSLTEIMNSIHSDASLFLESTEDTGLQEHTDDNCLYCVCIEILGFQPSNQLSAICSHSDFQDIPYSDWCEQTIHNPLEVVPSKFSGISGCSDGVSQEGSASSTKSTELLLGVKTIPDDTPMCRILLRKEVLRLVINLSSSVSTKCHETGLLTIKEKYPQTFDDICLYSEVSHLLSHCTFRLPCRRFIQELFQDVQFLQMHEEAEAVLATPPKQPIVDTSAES
UniProt P35579: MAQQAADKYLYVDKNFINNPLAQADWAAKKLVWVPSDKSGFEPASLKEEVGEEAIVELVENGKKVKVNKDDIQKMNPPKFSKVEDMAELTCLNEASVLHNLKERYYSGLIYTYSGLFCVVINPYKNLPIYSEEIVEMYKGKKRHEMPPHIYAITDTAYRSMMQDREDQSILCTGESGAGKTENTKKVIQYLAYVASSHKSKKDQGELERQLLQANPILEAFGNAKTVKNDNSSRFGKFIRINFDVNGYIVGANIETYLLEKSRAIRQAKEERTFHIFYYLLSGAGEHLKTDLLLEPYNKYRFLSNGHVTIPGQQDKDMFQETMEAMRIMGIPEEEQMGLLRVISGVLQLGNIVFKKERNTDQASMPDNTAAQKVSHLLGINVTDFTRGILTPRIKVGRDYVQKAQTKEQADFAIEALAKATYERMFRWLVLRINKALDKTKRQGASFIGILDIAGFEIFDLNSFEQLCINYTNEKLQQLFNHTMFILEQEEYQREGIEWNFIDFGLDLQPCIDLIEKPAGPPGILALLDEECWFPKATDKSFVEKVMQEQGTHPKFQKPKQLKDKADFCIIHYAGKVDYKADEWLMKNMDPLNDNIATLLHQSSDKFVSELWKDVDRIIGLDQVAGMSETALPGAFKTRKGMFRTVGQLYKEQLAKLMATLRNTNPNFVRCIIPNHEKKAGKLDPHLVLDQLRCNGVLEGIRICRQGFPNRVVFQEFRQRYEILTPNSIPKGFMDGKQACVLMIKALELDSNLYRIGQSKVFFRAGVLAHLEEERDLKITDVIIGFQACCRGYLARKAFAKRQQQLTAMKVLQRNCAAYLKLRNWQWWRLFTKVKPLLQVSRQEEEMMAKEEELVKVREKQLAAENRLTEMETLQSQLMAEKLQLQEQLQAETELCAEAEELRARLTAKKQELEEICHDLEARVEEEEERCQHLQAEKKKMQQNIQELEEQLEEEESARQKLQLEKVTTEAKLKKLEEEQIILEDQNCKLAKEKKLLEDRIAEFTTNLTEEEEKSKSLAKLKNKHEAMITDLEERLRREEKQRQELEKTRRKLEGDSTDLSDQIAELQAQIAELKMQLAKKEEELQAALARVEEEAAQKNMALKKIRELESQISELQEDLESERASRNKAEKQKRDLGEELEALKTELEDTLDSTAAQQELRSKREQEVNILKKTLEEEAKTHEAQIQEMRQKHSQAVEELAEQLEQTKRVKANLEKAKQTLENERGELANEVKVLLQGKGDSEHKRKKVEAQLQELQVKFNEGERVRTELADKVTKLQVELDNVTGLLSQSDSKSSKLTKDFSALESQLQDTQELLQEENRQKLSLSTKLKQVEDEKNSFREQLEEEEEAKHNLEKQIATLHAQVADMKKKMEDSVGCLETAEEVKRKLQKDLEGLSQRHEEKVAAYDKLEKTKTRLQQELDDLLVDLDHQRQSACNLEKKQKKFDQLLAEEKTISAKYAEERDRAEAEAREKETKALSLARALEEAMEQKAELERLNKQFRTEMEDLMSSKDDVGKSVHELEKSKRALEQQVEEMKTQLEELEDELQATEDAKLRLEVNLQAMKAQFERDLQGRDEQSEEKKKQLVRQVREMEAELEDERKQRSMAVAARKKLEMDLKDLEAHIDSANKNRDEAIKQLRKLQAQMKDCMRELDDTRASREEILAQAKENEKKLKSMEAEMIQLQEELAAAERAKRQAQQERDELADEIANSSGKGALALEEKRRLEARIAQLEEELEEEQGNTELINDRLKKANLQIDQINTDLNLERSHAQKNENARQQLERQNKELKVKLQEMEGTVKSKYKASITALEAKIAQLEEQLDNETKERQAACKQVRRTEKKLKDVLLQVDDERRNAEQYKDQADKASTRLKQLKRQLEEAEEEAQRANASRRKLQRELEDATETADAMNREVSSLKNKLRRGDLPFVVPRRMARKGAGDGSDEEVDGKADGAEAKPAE
UniProt P68366: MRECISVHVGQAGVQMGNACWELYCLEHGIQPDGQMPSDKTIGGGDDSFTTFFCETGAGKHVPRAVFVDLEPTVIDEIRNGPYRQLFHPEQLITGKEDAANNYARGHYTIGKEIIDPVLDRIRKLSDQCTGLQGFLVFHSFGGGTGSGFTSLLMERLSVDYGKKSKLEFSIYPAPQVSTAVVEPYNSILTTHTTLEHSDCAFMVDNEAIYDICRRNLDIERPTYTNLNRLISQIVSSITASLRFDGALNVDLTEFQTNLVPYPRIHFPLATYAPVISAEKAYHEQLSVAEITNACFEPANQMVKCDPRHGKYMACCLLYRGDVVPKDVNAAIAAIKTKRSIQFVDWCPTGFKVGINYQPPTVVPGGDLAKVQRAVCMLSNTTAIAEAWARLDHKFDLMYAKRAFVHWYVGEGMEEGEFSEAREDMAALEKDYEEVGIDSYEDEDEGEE
UniProt P06396: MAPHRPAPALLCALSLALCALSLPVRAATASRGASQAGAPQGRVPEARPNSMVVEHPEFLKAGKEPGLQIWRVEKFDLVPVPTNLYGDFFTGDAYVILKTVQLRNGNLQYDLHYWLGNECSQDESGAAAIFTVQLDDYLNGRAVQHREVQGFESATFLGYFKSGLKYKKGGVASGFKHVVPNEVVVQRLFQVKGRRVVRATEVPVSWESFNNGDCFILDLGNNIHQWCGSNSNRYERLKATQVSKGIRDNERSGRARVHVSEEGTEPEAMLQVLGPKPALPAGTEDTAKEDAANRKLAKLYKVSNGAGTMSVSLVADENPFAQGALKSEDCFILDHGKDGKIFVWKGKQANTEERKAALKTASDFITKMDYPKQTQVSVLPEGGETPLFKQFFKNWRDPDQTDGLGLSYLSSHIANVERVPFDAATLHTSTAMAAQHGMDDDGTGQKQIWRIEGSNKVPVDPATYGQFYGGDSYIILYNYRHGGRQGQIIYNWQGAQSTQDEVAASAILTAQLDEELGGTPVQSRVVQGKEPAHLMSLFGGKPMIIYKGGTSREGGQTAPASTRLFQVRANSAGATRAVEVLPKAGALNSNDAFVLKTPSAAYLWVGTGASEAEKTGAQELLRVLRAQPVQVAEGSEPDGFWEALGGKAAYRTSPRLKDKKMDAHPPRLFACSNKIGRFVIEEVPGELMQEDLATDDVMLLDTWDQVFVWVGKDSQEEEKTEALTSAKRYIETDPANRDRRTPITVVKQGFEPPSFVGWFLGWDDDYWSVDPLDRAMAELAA
UniProt Q9UHB6: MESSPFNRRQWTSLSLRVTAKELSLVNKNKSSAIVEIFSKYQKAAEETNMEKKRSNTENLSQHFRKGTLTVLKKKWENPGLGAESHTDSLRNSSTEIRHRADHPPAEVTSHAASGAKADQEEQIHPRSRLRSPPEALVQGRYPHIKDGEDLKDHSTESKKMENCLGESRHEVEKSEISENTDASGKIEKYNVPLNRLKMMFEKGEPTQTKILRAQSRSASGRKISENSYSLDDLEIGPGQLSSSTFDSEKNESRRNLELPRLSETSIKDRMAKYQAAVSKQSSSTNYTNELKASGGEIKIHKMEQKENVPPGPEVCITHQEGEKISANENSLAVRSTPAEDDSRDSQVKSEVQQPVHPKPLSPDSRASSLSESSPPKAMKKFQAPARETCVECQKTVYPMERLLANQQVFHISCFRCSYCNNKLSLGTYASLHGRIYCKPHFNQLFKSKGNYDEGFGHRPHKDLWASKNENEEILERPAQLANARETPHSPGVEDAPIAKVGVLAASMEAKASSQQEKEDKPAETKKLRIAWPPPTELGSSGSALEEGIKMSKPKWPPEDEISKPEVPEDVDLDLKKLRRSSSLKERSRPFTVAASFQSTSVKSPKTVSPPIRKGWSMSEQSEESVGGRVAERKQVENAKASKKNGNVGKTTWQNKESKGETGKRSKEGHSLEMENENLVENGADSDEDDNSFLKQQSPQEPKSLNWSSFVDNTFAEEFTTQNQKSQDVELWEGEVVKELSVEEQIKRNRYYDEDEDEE

Tests used:
[1] = biological target: RICTOR (human (endogenous in U87MG, DBTRG-05MG, H4, SW1088)) (UniProt Q6R327); test: affinity purification with mass spectrometry; anti-RICTOR IP from U87MG lysate compared with H4 lysate, label-free quantification
[2] = biological target: RICTOR (human (endogenous in U87MG, DBTRG-05MG, H4, SW1088)) (UniProt Q6R327); test: affinity purification with mass spectrometry; anti-RICTOR antibody and protein A magnetic beads, endogenous proteins of U87MG lysate (2% CHAPS, 150 mM NaCl), washes with 300 mM NaCl; normal against siRICTOR-treated cells (QUICK), SDS-PAGE and in-gel digestion, label-free quantification
[3] = biological target: RICTOR (human (endogenous in U87MG, DBTRG-05MG, H4, SW1088)) (UniProt Q6R327); test: affinity purification with mass spectrometry; anti-RICTOR IP from U87MG lysates; cells serum-starved, serum-activated or treated with 2.0 µM AZD8055; GELFREE fractionation, eFASP in-solution digestion, label-free quantification
[4] = biological target: RICTOR (human (endogenous in U87MG, DBTRG-05MG, H4, SW1088)) (UniProt Q6R327); test: affinity purification with mass spectrometry; anti-RICTOR IP from U87MG lysates, control against GSN knockdown (FANA antisense oligonucleotides); on-bead digestion, label-free quantification
[5] = biological target: RICTOR (human (endogenous in U87MG, DBTRG-05MG, H4, SW1088)) (UniProt Q6R327); test: affinity purification with mass spectrometry; anti-RICTOR IP from lysate of U87MG cells treated with 2.0 µM AZD8055 (24 h); GELFREE fractionation, eFASP digestion

binding [1]: binds
binding [2]: binds
binding [3]: binds
binding [4]: binds
Molecule: myosin-9 (MYH9) (from UniProt P35579 1-1960)

binding [1]: binds
Molecule: FLNC (from UniProt Q14315 1-2725)

binding [1]: binds
binding [4]: binds
Molecule: tubulin alpha-4A chain (TUBA4A) (from UniProt P68366 1-448)

binding [3]: binds
binding [4]: binds
Molecule: microtubule-associated protein 1B (MAP1B) (from UniProt P46821 1-2468)

binding [1]: binds
Molecule: SVIL (from UniProt O95425 1-2214)

binding [2]: binds
binding [4]: binds
Molecule: FLNA (from UniProt P21333 1-2647)

binding [1]: binds
binding [3]: binds
binding [4]: binds
Molecule: gelsolin (GSN) (from UniProt P06396)
binding [5]: no binding (only cells treated with 2.0 µM AZD8055)

binding [1]: binds
Molecule: LIMA1 (from UniProt Q9UHB6 1-759)

binding [1]: binds
binding [3]: binds
binding [4]: binds
B1: unconventional myosin-Id (MYO1D) (protein, UniProt O94832 1-1006)
chain: MAEQESLEFGKADFVLMDTVSMPEFMANLRLRFEKGRIYTFIGEVVVSVNPYKLLNIYGRDTIEQYKGRELYERPPHLFAIADAAYKAMKRRSKDTCIVISGESGAGKTEASKYIMQYIAAITNPSQRAEVERVKNMLLKSNCVLEAFGNAKTNRNDNSSRFGKYMDINFDFKGDPIGGHINNYLLEKSRVIVQQPGERSFHSFYQLLQGGSEQMLRSLHLQKSLSSYNYIHVGAQLKSSINDAAEFRVVADAMKVIGFKPEEIQTVYKILAAILHLGNLKFVVDGDTPLIENGKVVSIIAELLSTKTDMVEKALLYRTVATGRDIIDKQHTEQEASYGRDAFAKAIYERLFCWIVTRINDIIEVKNYDTTIHGKNTVIGVLDIYGFEIFDNNSFEQFCINYCNEKLQQLFIQLVLKQEQEEYQREGIPWKHIDYFNNQIIVDLVEQQHKGIIAILDDACMNVGKVTDEMFLEALNSKLGKHAHFSSRKLCASDKILEFDRDFRIRHYAGDVVYSVIGFIDKNKDTLFQDFKRLMYNSSNPVLKNMWPEGKLSITEVTKRPLTAATLFKNSMIALVDNLASKEPYYVRCIKPNDKKSPQIFDDERCRHQVEYLGLLENVRVRRAGFAFRQTYEKFLHRYKMISEFTWPNHDLPSDKEAVKKLIERCGFQDDVAYGKTKIFIRTPRTLFTLEELRAQMLIRIVLFLQKVWRGTLARMRYKRTKAALTIIRYYRRYKVKSYIHEVARRFHGVKTMRDYGKHVKWPSPPKVLRRFEEALQTIFNRWRASQLIKSIPASDLPQVRAKVAAVEMLKGQRADLGLQRAWEGNYLASKPDTPQTSGTFVPVANELKRKDKYMNVLFSCHVRKVNRFSKVEDRAIFVTDRHLYKMDPTKQYKVMKTIPLYNLTGLSVSNGKDQLVVFHTKDNKDLIVCLFSKQPTHESRIGELVGVLVNHFKSEKRHLQVNVTNPVQCSLHGKKCTVSVETRLNQPQPDFTKNRSGFILSVPGN

binding [1]: binds
B2: KIF3B (protein, UniProt O15066 1-747)
chain: MSKLKSSESVRVVVRCRPMNGKEKAASYDKVVDVDVKLGQVSVKNPKGTAHEMPKTFTFDAVYDWNAKQFELYDETFRPLVDSVLQGFNGTIFAYGQTGTGKTYTMEGIRGDPEKRGVIPNSFDHIFTHISRSQNQQYLVRASYLEIYQEEIRDLLSKDQTKRLELKERPDTGVYVKDLSSFVTKSVKEIEHVMNVGNQNRSVGATNMNEHSSRSHAIFVITIECSEVGLDGENHIRVGKLNLVDLAGSERQAKTGAQGERLKEATKINLSLSALGNVISALVDGKSTHIPYRDSKLTRLLQDSLGGNAKTVMVANVGPASYNVEETLTTLRYANRAKNIKNKPRVNEDPKDALLREFQEEIARLKAQLEKRSIGRRKRREKRREGGGSGGGGEEEEEEGEEGEEEGDDKDDYWREQQEKLEIEKRAIVEDHSLVAEEKMRLLKEKEKKMEDLRREKDAAEMLGAKIKAMESKLLVGGKNIVDHTNEQQKILEQKRQEIAEQKRREREIQQQMESRDEETLELKETYSSLQQEVDIKTKKLKKLFSKLQAVKAEIHDLQEEHIKERQELEQTQNELTRELKLKHLIIENFIPLEEKSKIMNRAFFDEEEDHWKLHPITRLENQQMMKRPVSAVGYKRPLSQHARMSMMIRPEARYRAENIVLLELDMPSRTTRDYEGPAIAPKVQAALDAALQDEDEIQVDASSFESTANKKSKARPKSGRKSGSSSSSSGTPASQLYPQSRGLVPK

binding [3]: binds
B3: ATP-binding cassette subfamily F member 2 (ABCF2) (protein, UniProt Q9UG63 1-623)
chain: MPSDLAKKKAAKKKEAAKARQRPRKGHEENGDVVTEPQVAEKNEANGRETTEVDLLTKELEDFEMKKAAARAVTGVLASHPNSTDVHIINLSLTFHGQELLSDTKLELNSGRRYGLIGLNGIGKSMLLSAIGKREVPIPEHIDIYHLTREMPPSDKTPLHCVMEVDTERAMLEKEAERLAHEDAECEKLMELYERLEELDADKAEMRASRILHGLGFTPAMQRKKLKDFSGGWRMRVALARALFIRPFMLLLDEPTNHLDLDACVWLEEELKTFKRILVLVSHSQDFLNGVCTNIIHMHNKKLKYYTGNYDQYVKTRLELEENQMKRFHWEQDQIAHMKNYIARFGHGSAKLARQAQSKEKTLQKMMASGLTERVVSDKTLSFYFPPCGKIPPPVIMVQNVSFKYTKDGPCIYNNLEFGIDLDTRVALVGPNGAGKSTLLKLLTGELLPTDGMIRKHSHVKIGRYHQHLQEQLDLDLSPLEYMMKCYPEIKEKEEMRKIIGRYGLTGKQQVSPIRNLSDGQKCRVCLAWLAWQNPHMLFLDEPTNHLDIETIDALADAINEFEGGMMLVSHDFRLIQQVAQEIWVCEKQTITKWPGDILAYKEHLKSKLVDEEPQLTKRTHNV
binding [5]: no binding (only cells treated with 2.0 µM AZD8055)
